Record: PubChem BioAssay AID686943 (Drosophila RNAi Screening Center, 2013)

Purpose: 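Fly genes whose loss alters ERK activation after insulin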 (primary screen)
Cell system: Drosophila S2R+ haemocyte-like cells expressing YFP-tagged ERK (Rolled)
Reagent: long dsRNA against Drosophila genes
Challenge: insulin stimulation versus unstimulated cells; dose and duration not given
Measured: 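Per-plate z-scores of phospho-ERK immunostaining normalised to YFP-tagged ERK, measured with and without insulin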
Scale: replicate 1, z-score of dpERK with insulin and replicate 2, z-score of dpERK with insulin: higher = more active ERK per ERK-YFP after insulin
The screen tested about 23,000 reagents; this is an unselected part of those with a known target gene and a result. 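Extra replicates exist only for a retested subset of genes; insulin dose and duration not given; both raised and lowered dpERK matter.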 Reagents against one gene are numbered here. Names joined by + are all predicted targets of the reagent. Not all columns of the deposit are shown. Not stated in the record: the amount of reagent, the time to read-out.

{"gene": "CRAT", "reagent no.": 1, "replicate 1, z-score of dpERK with insulin": 0.17, "replicate 2, z-score of dpERK with insulin": 0.5}
{"gene": "RpL35", "reagent no.": 1, "replicate 1, z-score of dpERK with insulin": -1.31, "replicate 2, z-score of dpERK with insulin": -0.25}
{"gene": "sloth2 + sloth1", "reagent no.": 1, "replicate 1, z-score of dpERK with insulin": 0.26, "replicate 2, z-score of dpERK with insulin": 0.13}
{"gene": "sloth2 + sloth1", "reagent no.": 2, "replicate 1, z-score of dpERK with insulin": 0.6, "replicate 2, z-score of dpERK with insulin": 0.75}
{"gene": "CG7920", "reagent no.": 1, "replicate 1, z-score of dpERK with insulin": 1.06, "replicate 2, z-score of dpERK with insulin": 0.46}
{"gene": "CG7920", "reagent no.": 2, "replicate 1, z-score of dpERK with insulin": 0.06, "replicate 2, z-score of dpERK with insulin": -0.03}
{"gene": "CG3483", "reagent no.": 1, "replicate 1, z-score of dpERK with insulin": 0.93, "replicate 2, z-score of dpERK with insulin": 0.73}
{"gene": "CG6696", "reagent no.": 1, "replicate 1, z-score of dpERK with insulin": -0.1, "replicate 2, z-score of dpERK with insulin": -0.27}
{"gene": "CG30187", "reagent no.": 1, "replicate 1, z-score of dpERK with insulin": 0.15, "replicate 2, z-score of dpERK with insulin": 0.58}
{"gene": "dah", "reagent no.": 1, "replicate 1, z-score of dpERK with insulin": -0.61, "replicate 2, z-score of dpERK with insulin": -0.51}
{"gene": "CG13700", "reagent no.": 1, "replicate 1, z-score of dpERK with insulin": -0.41, "replicate 2, z-score of dpERK with insulin": 0}
{"gene": "CG7860", "reagent no.": 1, "replicate 1, z-score of dpERK with insulin": -0.27, "replicate 2, z-score of dpERK with insulin": 0.22}
{"gene": "CG30177", "reagent no.": 1, "replicate 1, z-score of dpERK with insulin": 1.02, "replicate 2, z-score of dpERK with insulin": 1.04}
{"gene": "Dref", "reagent no.": 1, "replicate 1, z-score of dpERK with insulin": -0.8, "replicate 2, z-score of dpERK with insulin": 0.03}
{"gene": "odd", "reagent no.": 1, "replicate 1, z-score of dpERK with insulin": -5.46, "replicate 2, z-score of dpERK with insulin": -3.29}
{"gene": "speck", "reagent no.": 1, "replicate 1, z-score of dpERK with insulin": -0.58, "replicate 2, z-score of dpERK with insulin": -0.64}
{"gene": "gek", "reagent no.": 1, "replicate 1, z-score of dpERK with insulin": 0.63, "replicate 2, z-score of dpERK with insulin": 0.39}
{"gene": "Cp110", "reagent no.": 1, "replicate 1, z-score of dpERK with insulin": -0.61, "replicate 2, z-score of dpERK with insulin": -0.14}
{"gene": "Cp110", "reagent no.": 2, "replicate 1, z-score of dpERK with insulin": 1.12, "replicate 2, z-score of dpERK with insulin": -0.12}
{"gene": "CG7110", "reagent no.": 1, "replicate 1, z-score of dpERK with insulin": 0.24, "replicate 2, z-score of dpERK with insulin": 0.27}
{"gene": "CG7110", "reagent no.": 2, "replicate 1, z-score of dpERK with insulin": 0.98, "replicate 2, z-score of dpERK with insulin": 0.46}
{"gene": "Pgant2", "reagent no.": 1, "replicate 1, z-score of dpERK with insulin": -0.04, "replicate 2, z-score of dpERK with insulin": 0.65}
{"gene": "Ac76E", "reagent no.": 1, "replicate 1, z-score of dpERK with insulin": -0.81, "replicate 2, z-score of dpERK with insulin": -0.53}
{"gene": "Ac76E", "reagent no.": 2, "replicate 1, z-score of dpERK with insulin": -0.08, "replicate 2, z-score of dpERK with insulin": -0.02}
{"gene": "bisc", "reagent no.": 1, "replicate 1, z-score of dpERK with insulin": -0.07, "replicate 2, z-score of dpERK with insulin": -0.94}
{"gene": "Map205", "reagent no.": 1, "replicate 1, z-score of dpERK with insulin": -0.79, "replicate 2, z-score of dpERK with insulin": -0.8}
{"gene": "Frq1", "reagent no.": 1, "replicate 1, z-score of dpERK with insulin": 0.92, "replicate 2, z-score of dpERK with insulin": 0.22}
{"gene": "CG13252", "reagent no.": 1, "replicate 1, z-score of dpERK with insulin": 0.09, "replicate 2, z-score of dpERK with insulin": 0.26}
{"gene": "CG10283", "reagent no.": 1, "replicate 1, z-score of dpERK with insulin": -0.8, "replicate 2, z-score of dpERK with insulin": -0.16}
{"gene": "CG34171", "reagent no.": 1, "replicate 1, z-score of dpERK with insulin": 0.2, "replicate 2, z-score of dpERK with insulin": 0.28}
{"gene": "CG18094", "reagent no.": 1, "replicate 1, z-score of dpERK with insulin": -0.08, "replicate 2, z-score of dpERK with insulin": 0.36}

Not a retest: entries from further up.
{"gene": "Ac76E", "reagent no.": 1, "replicate 1, z-score of dpERK with insulin": -0.81, "replicate 2, z-score of dpERK with insulin": -0.53}
{"gene": "Ac76E", "reagent no.": 2, "replicate 1, z-score of dpERK with insulin": -0.08, "replicate 2, z-score of dpERK with insulin": -0.02}
{"gene": "bisc", "reagent no.": 1, "replicate 1, z-score of dpERK with insulin": -0.07, "replicate 2, z-score of dpERK with insulin": -0.94}
{"gene": "Map205", "reagent no.": 1, "replicate 1, z-score of dpERK with insulin": -0.79, "replicate 2, z-score of dpERK with insulin": -0.8}
{"gene": "Frq1", "reagent no.": 1, "replicate 1, z-score of dpERK with insulin": 0.92, "replicate 2, z-score of dpERK with insulin": 0.22}
